# Measurements from patent US20090312380A1, “NOVEL COMPOSITIONS AND METHODS” (priority 2006, published 2009).
# Experiments:
# [1] = Water surface area from GVS data, Excess Surface Work (ESW) model; format: physicochemical
# Method: The xy-data pairs used for the sorption isotherms (mRH, RH-levels) can also be used for a different approach to describe the sorption isotherm. Here, the change in chemical potential Δμ for the sorption process at each relative humidity (and at temperature T) is calculated:
# with: R=Universal Gas Constant • T=Temperature • p=water partial pressure at humidity RH and temperature T • ps=water vapour saturation pressure at temperature T
# Based on the change in chemical potential Δμ, an energetic term φ can be calculated for each relative humidity, termed excess surface work (ESW) according to J. Adolphs and M. J. Setzer, Journal of Colloid and Interface Science, vol. 180, pp. 70-76, 1996:
# with: Φ=excess surface work • Δμ=change in chemical potential • nads=number of moles of water adsorbed in equilibrium at humidity RH
# A plot of Φ/RT vs. nads can then be generated, to allow the value of nads at the minimum value of Φ/RT to be deduced. This value of nads corresponds to nmono.
# The calculated monolayer coverage nmono obtained from the application of the gas sorption models to GVS data can be re-calculated to water surface area Awater, taking into account the mean cross sectional area aH2O occupied by one water molecule upon adsorption:
# with: Awater=water surface area [m^2/g] • aH2O mean cross sectional area of one water molecule adsorbed 10^−19 m^2/molecule • nmono=apparent amount adsorbed in the monolayer [mol] • NL=Lochschmidt number=6×10^23 molecules/mol • mdry (sample)=dry mass of sample [g]
# Likewise, the determination of the ESW water surface area is illustrated for sample A as follows.
# A plot of Φ/RT versus the change in mass for sample A was then generated (see FIG. 3). From this, it could be deduced that the minimum value of Φ/RT corresponded to a change in mass of 0.0369 mg, the apparent monolayer amount. This is turn equated to a WSA of 6.65 m^2/g, using equation (A4) above, wherein mdry=18.57 mg.
# [2] = Water surface area from GVS data, BET model; format: physicochemical; conditions: p/ps versus [p/ps]/[n(1−p/ps)], FIG. 2
# Description: The multilayer sorption model according to Brunauer, Emmet and Teller Journal of the American Chemical Society, vol. 60, pp. 309, 1938) is described as follows:
# with: n=number of moles adsorbed at p/p, (=RH/100) • nmono=apparent number of moles adsorbed in monolayer • p/ps=gas partial pressure (=RH/100 in the GVS experiments) • C=BET constant (measure for the strength of the sorption interaction)
# From the sorption kinetics, the equilibrium weight changes at the end of each RH stage are extracted to compile xy-data pairs (RH vs. adsorbed amount).
# From this, a plot of [p/ps]/[n(1−p/ps)] versus p/ps should give a linear correlation with intercept b=1/[C(nmono)] and slope m=b(C−1). […]
# The calculated monolayer coverage nmono obtained from the application of the gas sorption models to GVS data can be re-calculated to water surface area Awater, taking into account the mean cross sectional area aH2O occupied by one water molecule upon adsorption: […]
# The determination of the BET water surface area is illustrated for sample A as follows. From the relative humidity data and the mass difference, p/ps and [p/ps]/[n(1−p/ps)] were calculated to give the values shown in Table 4.
# A plot of p/ps versus [p/ps]/[n(1−p/ps)] was then generated (see FIG. 2) allowing the slope (m=26.726) and the intercept (b=3.8219) to be calculated. […]
smiles,measurement,setting,value
"CCCCC1=NC2(CCCC2)C(=O)N1Cc1ccc(-c2ccccc2-c2nnn[nH]2)cc1 [Sample A, irbesartan]",Φ/RT (excess surface work),[1]; RH 0.33 %,−0.1477
same,Φ/RT (excess surface work),[1]; RH 4.98 %,−0.1777
same,Φ/RT (excess surface work),[1]; RH 10.01 %,−0.2057
same,Φ/RT (excess surface work),[1]; RH 15.00 %,−0.2237
same,Φ/RT (excess surface work),[1]; RH 19.99 %,−0.2297
same,Φ/RT (excess surface work),[1]; RH 25.02 %,−0.2387
same,Φ/RT (excess surface work),[1]; RH 30.00 %,−0.2392
same,Φ/RT (excess surface work),[1]; RH 34.98 %,−0.2319
same,Φ/RT (excess surface work),[1]; RH 40.02 %,−0.2233
same,Φ/RT (excess surface work),[1]; RH 49.98 %,−0.2013
same,Φ/RT (excess surface work),[1]; RH 60.00 %,−0.1733
same,Φ/RT (excess surface work),[1]; RH 70.02 %,−0.1374
same,Φ/RT (excess surface work),[1]; RH 79.99 %,−0.0976
same,Φ/RT (excess surface work),[1]; RH 90.01 %,−0.05423
same,Φ/RT (excess surface work),[1]; RH 93.03 %,−0.03781
same,intercept b of BET plot,[2],3.8219
same,slope m of BET plot,[2],26.726
